Laboratory results taken from publication PMC11883276.
No constants are given. Whether binding was seen depends on the method and setting. A result given as binding can be weak or reduced; the word gives no strength.

The chains behind the UniProt entries cited, without tags or fusion partners. Where a name states a change or a piece, a line headed by the entry shows the natural chain unless it says otherwise. Residues count along the entry.
UniProt P12830, residues 155-709: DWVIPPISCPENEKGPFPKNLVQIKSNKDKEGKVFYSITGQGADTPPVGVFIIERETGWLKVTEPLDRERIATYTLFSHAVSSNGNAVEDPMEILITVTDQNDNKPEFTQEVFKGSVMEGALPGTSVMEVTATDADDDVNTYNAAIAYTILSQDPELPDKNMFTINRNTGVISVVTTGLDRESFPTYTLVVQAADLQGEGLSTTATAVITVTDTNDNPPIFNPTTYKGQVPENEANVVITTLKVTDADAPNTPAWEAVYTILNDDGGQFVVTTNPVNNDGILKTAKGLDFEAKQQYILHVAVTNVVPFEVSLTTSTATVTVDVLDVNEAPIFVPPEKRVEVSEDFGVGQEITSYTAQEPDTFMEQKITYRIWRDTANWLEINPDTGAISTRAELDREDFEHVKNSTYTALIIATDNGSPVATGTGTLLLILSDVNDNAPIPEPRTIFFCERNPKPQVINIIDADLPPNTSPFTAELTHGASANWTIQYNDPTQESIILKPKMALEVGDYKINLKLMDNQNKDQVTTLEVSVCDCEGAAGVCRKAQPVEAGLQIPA
UniProt P19022: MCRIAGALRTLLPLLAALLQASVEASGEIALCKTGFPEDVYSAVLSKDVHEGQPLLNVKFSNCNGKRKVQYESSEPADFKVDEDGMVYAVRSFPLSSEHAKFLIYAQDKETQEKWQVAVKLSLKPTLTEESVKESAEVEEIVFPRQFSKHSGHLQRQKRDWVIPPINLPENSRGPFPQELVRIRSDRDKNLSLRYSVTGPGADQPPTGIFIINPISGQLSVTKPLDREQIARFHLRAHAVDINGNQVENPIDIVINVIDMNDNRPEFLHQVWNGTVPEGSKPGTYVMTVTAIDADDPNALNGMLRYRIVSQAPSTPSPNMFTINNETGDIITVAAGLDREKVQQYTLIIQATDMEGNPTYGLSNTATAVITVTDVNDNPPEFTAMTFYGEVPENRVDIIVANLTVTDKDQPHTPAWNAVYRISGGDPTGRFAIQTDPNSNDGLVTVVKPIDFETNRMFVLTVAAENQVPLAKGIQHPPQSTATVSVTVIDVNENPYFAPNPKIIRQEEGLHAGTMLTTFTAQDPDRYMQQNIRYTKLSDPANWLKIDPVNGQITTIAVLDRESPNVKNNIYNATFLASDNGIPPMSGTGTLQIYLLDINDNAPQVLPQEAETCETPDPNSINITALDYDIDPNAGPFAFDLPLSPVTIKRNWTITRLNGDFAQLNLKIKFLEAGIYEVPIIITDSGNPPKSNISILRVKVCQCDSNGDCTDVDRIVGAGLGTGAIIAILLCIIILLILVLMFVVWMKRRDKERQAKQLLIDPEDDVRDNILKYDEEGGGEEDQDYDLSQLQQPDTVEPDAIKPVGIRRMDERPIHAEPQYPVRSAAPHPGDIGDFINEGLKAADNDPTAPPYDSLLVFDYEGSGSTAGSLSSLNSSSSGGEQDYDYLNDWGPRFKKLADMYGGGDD

Molecular target: Fc-tagged extracellular domain of E-cadherin (E-cad-Fc) (UniProt P12830)
Test: capillary shear flow cell adhesion assay; cadherin-Fc (50 µg/ml) physisorbed on the inner walls of glass capillaries, blocked with BSA; A431-D^E-cad or A431-D^N-cad cells bound 20 min under static conditions, room temperature, low-serum medium with 2 mM Ca2+, then flow increased every 30 s; WSS50 from fits to Eqn 1; only the target …

binding: binds
Substance: full-length wild-type human N-cadherin on A431-D cells (A431-D^N-cad; A431-D^N-cad+FGFR) (from UniProt P19022) (receptor)
